Some entries repeat one wording, which the source may state once for all of them.
assay: Heat-sensitive transfer recording: Status A reflection density at solid density portion of the image; settings: solid density (100% dot density), thermal head 0.25 W/dot
Text: The thus-obtained ink sheet 1 and image-receiving material were superposed so that the dye-providing layer in the ink sheet and the image-receiving layer in the image-receiving material were contacted with each other. For printing, a thermal head was used from the back side of the dye-providing material under the following conditions:
Output of the thermal head: 0.25 W/dot; Pulse interval: 0.15 milliseconds to 15 milliseconds; and dot density: 6 dots/mm. Then, the image-receiving layer of the image-receiving material was image-wise colored by the yellow dye. […] Image recordings were conducted in the same manner as the above-described image recording, except that ink sheet 1 was replaced by ink sheets 2 to 14, respectively.
Status A reflection densities were measured in the portion indicating a solid density (100% dot density) of each of the obtained images, and evaluated according to the following three grades: • A (very good): reflection density of 1.8 or more • B (good): reflection density of 1.6 or more but less than 1.8 • C (probably acceptable): reflection density of 1.0 or more but less than 1.6

Structure (SMILES)	Transferring property
CC(C)CCn1nc(C(C)(C)C)c(N=Nc2ccc([N+](=O)[O-])cc2)c1N [(9)]	B (B (good): reflection density of 1.6 or more but less than 1.8)
CCC(C)n1nc(C(C)(C)C)c(N=Nc2ccc([N+](=O)[O-])cc2)c1N (stereo not drawn) [(8)]	B (B (good): reflection density of 1.6 or more but less than 1.8)
CCCCCn1nc(C(C)(C)C)c(N=Nc2ccc([N+](=O)[O-])cc2)c1N [(5)]	A (A (very good): reflection density of 1.8 or more)
CC(C)Cn1nc(C(C)(C)C)c(N=Nc2ccc([N+](=O)[O-])cc2)c1N [(7)]	B (B (good): reflection density of 1.6 or more but less than 1.8)
CCN(CCOc1ccc(C2CCCCC2)cc1)c1ccc(C=C(C#N)C#N)c(C)c1 [Dye for Comparison 2, reference compound]	A (A (very good): reflection density of 1.8 or more)
CCCCN(CCCC)C(=O)c1ccc2c(c1)C(=O)C(c1nc3ccc(C(C)C)cc3cc1O)C2=O (stereo not drawn) [Dye for Comparison 3, reference compound]	C (C (probably acceptable): reflection density of 1.0 or more but less than 1.6)
